PubChem BioAssay AID1259254 | NCATS | 2017

Test: 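Genome-wide screen for genes that prevent DNA re-replication in cancer cells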 (primary screen)
Cells: human HCT116 colorectal cancer cells
Reagents: single siRNA against human genes
Duration: 3 days
Measured: 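Nuclei stained with Hoechst and imaged; cell-cycle phase assigned by DNA content; G2 share scaled per plate, non-targeting siRNA 0%, GMNN siRNA 100%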
Direction: G2 robust z-score: higher = more G2 cells, more excess DNA replication
Hit rule: 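An siRNA counts as active if its G2 robust z-score lies at least 5 MADs above the screen median; here such calls match roughly 38% of GMNN control or more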
The deposit covers about 59,000 reagents; shown is a random part of them. Of all reagents, about 1,550 (2.6%) are marked active. 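G2 share is only a proxy for re-replication; each gene was hit by three separate siRNAs, and active genes were retested.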 A number with no mark means an inactive call. Reagents against one gene are numbered here. Not all columns of the deposit are shown. No sequences are given here. Not stated in the record: the amount of reagent.

gene knocked down	reagent	G2 robust z-score
CALCOCO2	1	1.6
CALCOCO2	2	0.327
CALCOCO2	3	-0.364
RAPH1	1	0.616
RAPH1	2	1.36
RAPH1	3	0.265
CEP192P1	1	-0.576
CEP192P1	2	-0.0533
CEP192P1	3	-1.11
ZNF527	1	0.384
ZNF527	2	-0.851
ZNF527	3	-0.486
LOC340089	1	8.84 (active)
LOC340089	2	0.419
LOC340089	3	-0.559
CHST12	1	-0.787
CHST12	2	-1.33
CHST12	3	-0.743
DAOA	1	-0.784
DAOA	2	0.371
DAOA	3	-0.307
CEP126	1	-0.698
CEP126	2	0.212
CEP126	3	-0.46
DPEP1	1	-0.124
DPEP1	2	-1.19
DPEP1	3	-0.878
LOXL2	1	-0.141
LOXL2	2	0.486
LOXL2	3	-1.25
ACTR3	1	-0.573
ACTR3	2	-0.309
ACTR3	3	-0.641
RAD54L	1	-0.565
RAD54L	2	-0.249
RAD54L	3	-0.438
CALHM4	1	1.06
CALHM4	2	0.537
CALHM4	3	-0.338
ALG14	1	3.23
ALG14	2	3.54
ALG14	3	-0.375
CCNL1	1	-0.227
CCNL1	2	-1.45
CCNL1	3	-0.845
ARHGEF18	1	-0.86
ARHGEF18	2	-0.853
ARHGEF18	3	2.61
NEDD1	1	0.0621
NEDD1	2	1.28
NEDD1	3	0.766
SAV1	1	0.251
SAV1	2	-0.248
SAV1	3	-0.744
MAP3K2	1	3.03
MAP3K2	2	0.37
MAP3K2	3	-1
WASHC2EP	1	0.539
WASHC2EP	2	-0.563
WASHC2EP	3	2.02
GPX3	1	-0.233
GPX3	2	-1.01
GPX3	3	0.403
AMMECR1	1	-1.01
AMMECR1	2	-0.143
AMMECR1	3	0.785
NEDD4L	1	-0.0314
NEDD4L	2	0.153
NEDD4L	3	-0.348

Reprinted from the entries so far (4 entries):
gene knocked down	reagent	G2 robust z-score
DAOA	2	0.371
DAOA	3	-0.307
CEP126	1	-0.698
CEP126	2	0.212
